In general, IC50 refers to the concentration at which inhibition is half-maximal. A high value points to weaker potency.

By UniProt entry, the sequences of proteins in these tests, tags left out.
UniProt P43490, whole entry: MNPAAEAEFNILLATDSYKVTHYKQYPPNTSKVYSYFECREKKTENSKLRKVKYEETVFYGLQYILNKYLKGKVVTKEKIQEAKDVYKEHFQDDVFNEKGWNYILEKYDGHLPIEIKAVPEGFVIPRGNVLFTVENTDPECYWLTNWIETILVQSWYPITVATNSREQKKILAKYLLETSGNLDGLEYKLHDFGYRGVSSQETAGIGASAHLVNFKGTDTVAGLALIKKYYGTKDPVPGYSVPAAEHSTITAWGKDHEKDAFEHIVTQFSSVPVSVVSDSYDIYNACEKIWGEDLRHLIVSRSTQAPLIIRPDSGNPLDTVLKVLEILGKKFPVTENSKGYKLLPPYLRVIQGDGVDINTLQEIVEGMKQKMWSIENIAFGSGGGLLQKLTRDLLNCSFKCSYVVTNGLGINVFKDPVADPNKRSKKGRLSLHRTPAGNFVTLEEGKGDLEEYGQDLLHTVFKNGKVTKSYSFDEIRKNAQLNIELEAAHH

The subject of one data set is PC3 cells. Nature of the data set: PC3 growth inhibition (Cell-titer glo, 72 hours). It is filed as cell-based. Conditions: compound concentration 1.667 μM. The method, then:
The invention also provides compounds that inhibit cell growth. The ability of a compound of the invention to inhibit the growth of cells can be measured using a variety of methods known in the art. For example, the ability of a compound of the invention to inhibit the growth of PC3 cells can be measured. PC3 cells can be plated and incubated overnight under CO2. For each measurement, a compound of the invention (or vehicle e.g., DMSO) can be diluted with AIM serum free medium and added to the cell plate. The cell plate can then be incubated for 72 h under CO2. Cell-titer glo solution can be added and the plates can be incubated protected from light and the amount of luminescences can be measured. Concentration response curves can be generated by calculating the luminescence increase in test compound treated samples relative to DMSO-treated controls. Percentage remaining viability values at a single concentration can be measured. Growth inhibition (GI50) or cell viability (LD50) values can be determined from thoses curves. […]
To measure PC3 growth inhibition, PC3 cells that were maintained in RPMI1640 growth medium (Life Technologies; Cat. No. 11875) at 37° C. under 5% CO2 are trypsinized and diluted at a density of 8×10^4 cells/ml, 25 ul per well of cells and plated in 384-well black tissue culture plate. […] The luminescence is measured. […]

For a further data set, the target named is hNAMPT protein (Homo sapiens (Human), UniProt P43490). In words: NAMPT enzyme assay (TR-FRET/HTRF with BodiPY ligand). Conditions: for Percent Inhibition: NAMPT inhibition at compound concentration 1 μM; for IC50: NAMPT inhibition, IC50 range class. The source says:
As discussed above, the invention provides compounds that are useful as inhibitors of the enzyme NAMPT. The NAMPT inhibition of a compound of the invention can be measured using a variety of methods known in the art. For example, the ability of a compound of the invention to inhibit NAMPT enzyme activity can be measured using a homogeneous time resolved fluorescence (HTRF) assay using hNAMPT protein and anti 6His-Tb in buffer treated with a compound of the invention (or control e.g., DMSO) and BodiPY ligand. The TR-FRET signal can be measured using a high throughput microplate reader (e.g., Pherastar). Excitation can be carried out at 320 nm. The percent inhibition value at a single concentration of compound of the invention can be calculated relative to a control treated sample. A concentration response curve can be generated for each compound of the invention and the curve fitted to generate an IC50 value.
To measure the inhibition of NAMPT activity hNAMPT protein stock and anti 6His-Tb (Cisbio; Cat. No. 61HISTLB) is diluted to 3× final concentration with assay buffer (50 mM Tris-HCl (pH 7.5), 1 mM DTT, 100 mM NaCl, 10 mM MgCl2, 0.005% Tween 20). To this solution is added a test compound or vehicle control (DMSO) and BodiPY ligand (structure below). The plate is shaken for 1-2 min sealed and incubated for 1 h at rt in the dark. The TR-FRET signal is measured using BMG Pherastar (Lanthascreen protocol on BMG Pherastar). Excitation was carried out at 320 nm, and the ratio of emission of BodiPY (520 nm) to terbium (486 nm) was determined. Concentration response curves are generated by calculating the excitation increase in test compound-treated samples relative to DMSO-treated controls.
For the assay method described above, test compound percent inhibition values at a single concentration are calculated relative to control (DMSO) treated samples. Compound concentration response curves are fitted to generate IC50 values from those curves. One skilled in the art will appreciate that these values generated either as percentage inhibition at a single concentration or IC50 values are subject to experimental variation.
For orientation: TR-FRET usually uses a lanthanide donor and a delayed reading to cut background.

Structures were worked out from names or drawings and are uncertain.

Consider `CCOc1cc(-c2ccc(F)cc2)nc2cc(C(=O)NCCCc3nnn[nH]3)ccc12`, for which the “Percent Viability” value in the data set on PC3 cells worked out at 3%. Moreover, on hNAMPT protein, the “Percent Inhibition” value is reported as 85% and the IC50 is above 100 nM.
For `CCOc1cc(-c2cccnc2OC)nc2cc(C(=O)NCCCc3nnc[nH]3)ccc12`, the “Percent Viability” value in the data set on PC3 cells came out at 1%. Also, on hNAMPT protein, the “Percent Inhibition” value is recorded as 95% and the IC50 was in the range of 10 to 50 nM.

For the origin of these results see patent US10323018B2 (Millennium Pharmaceuticals, Inc., priority 2015, dated 2019).
